doi:10.1101/2025.03.31.646258
No constants are given. Whether binding was seen depends on the method and setting. Binding seen in cells or lysates may run through a third protein. Some entries that bind do so weakly or less than the wild type. Tags and fused reporters may be left off the sequences shown.

T1: Flag-tagged SNX10 (sorting nexin 10) (UniProt Q9CWT3)
T1 sequence: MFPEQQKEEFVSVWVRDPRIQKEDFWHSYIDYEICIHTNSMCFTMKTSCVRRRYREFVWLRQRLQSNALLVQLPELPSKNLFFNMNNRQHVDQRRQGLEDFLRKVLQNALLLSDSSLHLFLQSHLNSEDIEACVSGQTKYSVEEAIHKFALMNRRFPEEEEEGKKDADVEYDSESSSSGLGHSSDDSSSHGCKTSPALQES

T2: OSTM1-V5, exogenous in RAW264.7 OCLs (mouse) (UniProt Q8BGT0)
T2 sequence: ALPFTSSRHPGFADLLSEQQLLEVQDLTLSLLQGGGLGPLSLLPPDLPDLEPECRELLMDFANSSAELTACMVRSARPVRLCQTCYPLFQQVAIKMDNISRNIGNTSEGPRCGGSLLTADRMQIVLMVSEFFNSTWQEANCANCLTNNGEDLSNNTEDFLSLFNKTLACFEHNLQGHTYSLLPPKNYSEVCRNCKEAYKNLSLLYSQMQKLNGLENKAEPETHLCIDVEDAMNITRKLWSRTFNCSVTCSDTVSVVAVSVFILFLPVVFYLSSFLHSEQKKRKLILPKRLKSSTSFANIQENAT

T3: SNX10-HA (endogenous SNX10 with a knocked-in C-terminal HA tag) (mouse (endogenous in RAW264.7)) (UniProt Q9CWT3)
T3 sequence: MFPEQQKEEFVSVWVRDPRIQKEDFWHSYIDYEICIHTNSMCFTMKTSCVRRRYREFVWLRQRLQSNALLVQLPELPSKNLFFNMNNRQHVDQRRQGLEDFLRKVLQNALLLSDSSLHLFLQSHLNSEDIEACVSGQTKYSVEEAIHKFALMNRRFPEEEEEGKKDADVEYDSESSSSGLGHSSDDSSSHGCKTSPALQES


Legend:
Experiment in all cases: co-IP
[1] = biological target: T1, Flag-tagged SNX10 (sorting nexin 10)
[2] = biological target: T2, OSTM1-V5, exogenous in RAW264.7 OCLs (mouse)
[3] = biological target: T3, SNX10-HA (endogenous SNX10 with a knocked-in C-terminal HA tag) (mouse (endogenous in RAW264.7))

| binding [1] | binding [2] | binding [3] | Binder |
| --- | --- | --- | --- |
| binds | – | – | CLC-7 (untagged), expressed in HEK293 cells (protein, UniProt O70496 1-803) MANVSKKVSWSGRDRDDEEGAPLLRRTGQPDEETPLLNGAGPGARQSHSALFRIGQMNNVELDDELLDPEVDPPHTFPKEIPHNEKLLSLKYESLDYDNSENQLFLEEERRINHTAFRTVEIKRWVICALIGILTGLVACFIDIVVENLAGLKYRVIKDNIDKFTEKGGLSFSLLLWATLNSAFVLVGSVIVAFIEPVAAGSGIPQIKCFLNGVKIPHVVRLKTLVIKVSGVILSVVGGLAVGKEGPMIHSGSVIAAGISQGRSTSLKRDFKIFEYFRRDTEKRDFVSAGAAAGVSAAFGAPVGGVLFSLEEGASFWNQFLTWRIFFASMISTFTLNFVLSIYHGNMWDLSSPGLINFGRFDSEKMAYTIHEIPVFIAMGVVGGILGAVFNALNYWLTMFRIRYIHRPCLQVIEAMLVAAVTATVAFVLIYSSRDCQPLQGSSMSYPLQLFCADGEYNSMAAAFFNTPEKSVVSLFHDPPGSYNPMTLGLFTLVYFFLACWTYGLTVSAGVFIPSLLIGAAWGRLFGISLSYLTGAAIWADPGKYALMGAAAQLGGIVRMTLSLTVIMMEATSNVTYGFPIMLVLMTAKIVGDVFIEGLYDMHIQLQSVPFLHWEAPVTSHSLTAREVMSTPVTCLRRREKVGIIVDVLSDTASNHNGFPVVEDVGDTQPARLQGLILRSQLIVLLKHKVFVERSNMGLVQRRLRLKDFRDAYPRFPPIQSIHVSQDERECTMDLSEFMNPSPYTVPQEASLPRVFKLFRALGLRHLVVVDNHNQVVGLVTRKDLARYRLGKGGLEELSLAQT |
| – | binds | binds | CLC-7, endogenous in RAW264.7 OCLs (protein, UniProt O70496 1-803) MANVSKKVSWSGRDRDDEEGAPLLRRTGQPDEETPLLNGAGPGARQSHSALFRIGQMNNVELDDELLDPEVDPPHTFPKEIPHNEKLLSLKYESLDYDNSENQLFLEEERRINHTAFRTVEIKRWVICALIGILTGLVACFIDIVVENLAGLKYRVIKDNIDKFTEKGGLSFSLLLWATLNSAFVLVGSVIVAFIEPVAAGSGIPQIKCFLNGVKIPHVVRLKTLVIKVSGVILSVVGGLAVGKEGPMIHSGSVIAAGISQGRSTSLKRDFKIFEYFRRDTEKRDFVSAGAAAGVSAAFGAPVGGVLFSLEEGASFWNQFLTWRIFFASMISTFTLNFVLSIYHGNMWDLSSPGLINFGRFDSEKMAYTIHEIPVFIAMGVVGGILGAVFNALNYWLTMFRIRYIHRPCLQVIEAMLVAAVTATVAFVLIYSSRDCQPLQGSSMSYPLQLFCADGEYNSMAAAFFNTPEKSVVSLFHDPPGSYNPMTLGLFTLVYFFLACWTYGLTVSAGVFIPSLLIGAAWGRLFGISLSYLTGAAIWADPGKYALMGAAAQLGGIVRMTLSLTVIMMEATSNVTYGFPIMLVLMTAKIVGDVFIEGLYDMHIQLQSVPFLHWEAPVTSHSLTAREVMSTPVTCLRRREKVGIIVDVLSDTASNHNGFPVVEDVGDTQPARLQGLILRSQLIVLLKHKVFVERSNMGLVQRRLRLKDFRDAYPRFPPIQSIHVSQDERECTMDLSEFMNPSPYTVPQEASLPRVFKLFRALGLRHLVVVDNHNQVVGLVTRKDLARYRLGKGGLEELSLAQT |
